Compound in this assay: CC1Cc2ccccc2N1C(=O)C1CCCN(C1)C(=O)CCl (mixture of isomers) [TRIM25 ligand 11 (diastereomer mixture)]
Briefly: probe-labelled cysteine peptide fold change vs DMSO (competition) (log2 fold change); higher = less target engagement (more negative = stronger competition). Conditions: THP-1, incubation time: 4 h.

Some of the results follow.
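Further: competitive chemoproteomic profiling in live THP-1 cells with an iodoacetamide desthiobiotin (IA-DTB) probe, comparing probe-labelled peptide intensities in compound-treated cells against DMSO-treated controls.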

For “BCL7C_Q8WUZ0_211_RICPNAPDP (UniProt Q8WUZ0)”, the “probe-labelled cysteine peptide fold change” value is -0.116 (10 µM) and -0.0903 (50 µM).
For “BCAT2_O15382_135_LCLPSFDK (UniProt O15382)”, in that order: 0.102 and 0.495.
As to “BAZ2A_Q9UIF9_583_WQGETWYYGPCGK (UniProt Q9UIF9)”, the “probe-labelled cysteine peptide fold change” value (10 µM) was 0.0709 and the “probe-labelled cysteine peptide fold change” value (50 µM) was -0.0742.
With “AZU1_P20160_207_RGGICNGDGGTPLVCEGLAHGVASFSLGPCGR (UniProt P20160)”, the “probe-labelled cysteine peptide fold change” value (10 µM) turned out to be 0.241 and the “probe-labelled cysteine peptide fold change” value (50 µM) was 0.307.
As to “BHLHE22_Q8NFJ8_156_GSVAESSGGEQSPDDDSDGRCELVLR (UniProt Q8NFJ8)”, the “probe-labelled cysteine peptide fold change” value (10 µM) is -0.163 and the “probe-labelled cysteine peptide fold change” value (50 µM) is -0.376.
With “BCAR1_P56945_46_KGDIMTVLEQDTQGLDGWWLCSLHGR (UniProt P56945)”, the “probe-labelled cysteine peptide fold change” value reads like this: (10 µM) -0.0121; (50 µM) -0.0222.
Regarding “BOP1_Q14137_620_KLMPNCK (UniProt Q14137)”, the “probe-labelled cysteine peptide fold change” value reads like this: (10 µM) -0.191; (50 µM) -0.0748.
Turning to “BAG2_O95816_142_SHLMSLYSACSSEVPHGPVDQK (UniProt O95816)”, the “probe-labelled cysteine peptide fold change” value is 0.257 (10 µM) and 0.0507 (50 µM).
Regarding “ATXN10_Q9UBB4_84_SSHAVELACRDPSQVENLASSLQLITECFR (UniProt Q9UBB4)”, the “probe-labelled cysteine peptide fold change” value is, setting by setting: (10 µM) 0.0704; (50 µM) 0.131.
On to “BABAM2_Q9NXR7_245+254_IEHALGGSSALHIPAFPGGGCLIDYVPQVCHLLTNK (UniProt Q9NXR7)”, for which the “probe-labelled cysteine peptide fold change” value reads like this: (10 µM) 0.114; (50 µM) -0.133.
Take “AVEN_Q9NQS1_169_EWDSEASCPK (UniProt Q9NQS1)”: the “probe-labelled cysteine peptide fold change” value (10 µM) was -0.188 and the “probe-labelled cysteine peptide fold change” value (50 µM) is -0.472.
For “BLVRA_P53004_281_ILHCLGLAEEIQK (UniProt P53004)”, in that order: -0.116 and -0.0536.
For “BARGIN_Q6ZT62_110_ALEMSCAIQNQLAR (UniProt Q6ZT62)”, in that order: 0.0513 and 0.192.
“BDH2_Q9BUT1_145_CVYSTTK (UniProt Q9BUT1)”: the “probe-labelled cysteine peptide fold change” value runs as follows: (10 µM) -0.167; (50 µM) -0.196.
For the target “BCAP29_Q9UHQ4_171_DEECVLEAENK (UniProt Q9UHQ4)”, the “probe-labelled cysteine peptide fold change” value (10 µM) worked out at 0.371 and the “probe-labelled cysteine peptide fold change” value (50 µM) amounted to 0.156.
Turning to “BCAT1_P54687_221_GGTGDCK (UniProt P54687)”, the “probe-labelled cysteine peptide fold change” value was -0.0431 (10 µM) and 0.0305 (50 µM).
As to “BAZ1B_Q9UIG0_497_SALSCVISK (UniProt Q9UIG0)”, the “probe-labelled cysteine peptide fold change” value reads like this: (10 µM) -0.148; (50 µM) -0.448.
As for “BARGIN_Q6ZT62_213_RKVEQCRDEYLADLYHFVTK (UniProt Q6ZT62)”, the “probe-labelled cysteine peptide fold change” value is -0.186 (10 µM) and -0.111 (50 µM).
For “BAG2_O95816_162_FQSIVIGCALEDQKK (UniProt O95816)” the same measures were -0.201 and 0.038.
“BCKDK_O14874_111+118_CLPFIIGCNPTILHVHELYIR (UniProt O14874)”: the “probe-labelled cysteine peptide fold change” value is, setting by setting: (10 µM) 0.153; (50 µM) 0.248.
“BDH1_Q02338_86_GFLVFAGCLMK (UniProt Q02338)”: the “probe-labelled cysteine peptide fold change” value is -0.242 (10 µM) and 0.0199 (50 µM).
With “BARGIN_Q6ZT62_213_KVEQCRDEYLADLYHFVTK (UniProt Q6ZT62)”, the “probe-labelled cysteine peptide fold change” value reads like this: (10 µM) -0.11; (50 µM) 0.0581.
Consider “BAP18_Q8IXM2_66_RFGDDLNHISCVIK (UniProt Q8IXM2)”, for which the “probe-labelled cysteine peptide fold change” value reads like this: (10 µM) -0.0617; (50 µM) -0.448.
Take “ATRX_P46100_1814_AHILYEMLAGCVQR (UniProt P46100)”: the “probe-labelled cysteine peptide fold change” value is -0.025 (10 µM) and 0.133 (50 µM).
Consider “B4GALT3_O60512_119_YRPAGCEPR (UniProt O60512)”, for which the “probe-labelled cysteine peptide fold change” value is -0.106 (10 µM) and 0.182 (50 µM).
For “BAIAP2_Q9UQB8_202_QCAVAK (UniProt Q9UQB8)”, the “probe-labelled cysteine peptide fold change” value (10 µM) is -0.159 and the “probe-labelled cysteine peptide fold change” value (50 µM) was -0.0335.
For “BCAT1_P54687_140_EELLECIQQLVK (UniProt P54687)” the same measures were 0.336 and 0.314.
For “BCAP29_Q9UHQ4_171_SHGKDEECVLEAENK (UniProt Q9UHQ4)”, the “probe-labelled cysteine peptide fold change” value is 0.0274 (10 µM) and -0.21 (50 µM).
For “B4GALT7_Q9UBV7_75_ACPPEPPPEHWEEDASWGPHR (UniProt Q9UBV7)”, the “probe-labelled cysteine peptide fold change” value (10 µM) is 0.0722 and the “probe-labelled cysteine peptide fold change” value (50 µM) is -0.0496.
In the case of “BAZ1A_Q9NRL2_1195_TVPEGDWFCPECRPK (UniProt Q9NRL2)”, the “probe-labelled cysteine peptide fold change” value came to 0.0397 (10 µM) and 0.0567 (50 µM).
For “BOP1_Q14137_532_ICHGKPVTQVTWHGR (UniProt Q14137)”, in that order: 0.117 and 0.402.
In the case of “BAZ1B_Q9UIG0_1205_LILCDECNK (UniProt Q9UIG0)”, the “probe-labelled cysteine peptide fold change” value reads like this: (10 µM) 0.063; (50 µM) -0.0506.
Take “BAG3_O95817_151_QCGQVAAAAAAQPPASHGPER (UniProt O95817)”: the “probe-labelled cysteine peptide fold change” value by setting is: (10 µM) -0.0373; (50 µM) -0.11.
As to “BAZ2A_Q9UIF9_795_AKPACK (UniProt Q9UIF9)”, the “probe-labelled cysteine peptide fold change” value by setting is: (10 µM) -0.193; (50 µM) -0.0702.
“BLM_P54132_380_QISLQQQLIHVMEHICK (UniProt P54132)”: the “probe-labelled cysteine peptide fold change” value (10 µM) was -0.0581 and the “probe-labelled cysteine peptide fold change” value (50 µM) is -0.0667.
On to “BCL10_O95999_57_ILSREDTEEISCR (UniProt O95999)”, for which the “probe-labelled cysteine peptide fold change” value runs as follows: (10 µM) -0.111; (50 µM) 0.00715.
With “AUP1_Q9Y679_124_VLISNHVTPFDHNIVNLLTTCSTPLLNSPPSFVCWSR (UniProt Q9Y679)”, the “probe-labelled cysteine peptide fold change” value worked out at 0.143 (10 µM) and 0.389 (50 µM).
On to “AZU1_P20160_149_CQVAGWGSQR (UniProt P20160)”, for which the “probe-labelled cysteine peptide fold change” value is, setting by setting: (10 µM) 0.0126; (50 µM) -0.0102.
For the target “ATRX_P46100_1844_MTSIQCK (UniProt P46100)”, the “probe-labelled cysteine peptide fold change” value runs as follows: (10 µM) -0.0864; (50 µM) 0.0332.
For “BAZ1A_Q9NRL2_1177_GHHTYCVRPK (UniProt Q9NRL2)”, the “probe-labelled cysteine peptide fold change” value by setting is: (10 µM) 0.0609; (50 µM) -0.0936.
For “BIRC6_Q9NR09_566_HQEQHNIPFPCLLAGGLLTYK (UniProt Q9NR09)”, the “probe-labelled cysteine peptide fold change” value was -0.0515 (10 µM) and -0.124 (50 µM).
As for “BABAM2_Q9NXR7_245_IEHALGGSSALHIPAFPGGGCLIDYVPQVCHLLTNK (UniProt Q9NXR7)”, the “probe-labelled cysteine peptide fold change” value (10 µM) stood at 0.185 and the “probe-labelled cysteine peptide fold change” value (50 µM) was -0.246.

Values taken from the supplement of paper PMC12067093, “Discovery and optimisation of a covalent ligand for TRIM25 and its application to targeted protein ubiquitination” (Chemical Science, 2025).
